Experimental data as given in publication doi:10.1101/2023.01.28.526013.
No constants are given. Whether binding was seen depends on the method and setting. Binding seen in cells or lysates may run through a third protein. Some binding calls cover weakened binding; strength is not graded here. For part of these data: Sequences can lack the tags named with a protein.

Amino acid sequences for entries named in this document (tags omitted). Residues count along the entry.
UniProt P25311, residues 21-298: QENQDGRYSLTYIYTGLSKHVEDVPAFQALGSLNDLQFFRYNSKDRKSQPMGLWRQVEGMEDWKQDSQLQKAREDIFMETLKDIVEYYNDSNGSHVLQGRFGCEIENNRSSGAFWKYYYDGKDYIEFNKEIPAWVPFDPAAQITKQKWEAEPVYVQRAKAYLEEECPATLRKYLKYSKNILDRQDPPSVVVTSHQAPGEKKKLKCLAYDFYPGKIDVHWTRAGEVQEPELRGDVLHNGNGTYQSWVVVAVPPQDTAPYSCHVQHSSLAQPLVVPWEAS

How the values were obtained:
Assay in all cases: co-IP
[1] = target: T1, Migration and invasion inhibitory protein, FLAG-tagged (pCMV-MIIP-FLAG) (UniProt Q5JXC2)
T1 sequence: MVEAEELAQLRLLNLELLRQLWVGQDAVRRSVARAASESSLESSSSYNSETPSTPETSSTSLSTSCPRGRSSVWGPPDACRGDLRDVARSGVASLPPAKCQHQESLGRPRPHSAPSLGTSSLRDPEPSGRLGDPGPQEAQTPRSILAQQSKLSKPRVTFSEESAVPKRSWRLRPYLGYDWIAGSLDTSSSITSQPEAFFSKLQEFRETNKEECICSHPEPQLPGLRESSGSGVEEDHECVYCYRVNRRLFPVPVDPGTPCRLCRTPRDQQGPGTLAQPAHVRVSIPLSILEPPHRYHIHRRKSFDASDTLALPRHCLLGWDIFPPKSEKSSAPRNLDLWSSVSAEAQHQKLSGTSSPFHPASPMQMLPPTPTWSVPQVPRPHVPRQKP

[2] = target: T2, MIIP in HepG2 and T47-D cells (UniProt Q5JXC2)
T2 sequence: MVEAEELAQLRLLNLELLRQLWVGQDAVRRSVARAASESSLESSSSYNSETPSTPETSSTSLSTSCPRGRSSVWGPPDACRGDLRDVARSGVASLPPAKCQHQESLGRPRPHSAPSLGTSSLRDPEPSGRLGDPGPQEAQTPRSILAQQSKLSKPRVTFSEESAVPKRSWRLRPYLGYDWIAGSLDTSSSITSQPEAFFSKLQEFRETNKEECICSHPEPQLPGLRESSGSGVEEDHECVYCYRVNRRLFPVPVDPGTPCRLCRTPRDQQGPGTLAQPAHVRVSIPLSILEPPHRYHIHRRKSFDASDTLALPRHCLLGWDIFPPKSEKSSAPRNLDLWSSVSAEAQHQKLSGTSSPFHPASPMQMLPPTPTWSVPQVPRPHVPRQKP

[3] = target: T3, MIIP in HCT116 cells transfected with AZGP1 plasmids only (human (endogenous in HCT116)) (UniProt Q5JXC2)
T3 sequence: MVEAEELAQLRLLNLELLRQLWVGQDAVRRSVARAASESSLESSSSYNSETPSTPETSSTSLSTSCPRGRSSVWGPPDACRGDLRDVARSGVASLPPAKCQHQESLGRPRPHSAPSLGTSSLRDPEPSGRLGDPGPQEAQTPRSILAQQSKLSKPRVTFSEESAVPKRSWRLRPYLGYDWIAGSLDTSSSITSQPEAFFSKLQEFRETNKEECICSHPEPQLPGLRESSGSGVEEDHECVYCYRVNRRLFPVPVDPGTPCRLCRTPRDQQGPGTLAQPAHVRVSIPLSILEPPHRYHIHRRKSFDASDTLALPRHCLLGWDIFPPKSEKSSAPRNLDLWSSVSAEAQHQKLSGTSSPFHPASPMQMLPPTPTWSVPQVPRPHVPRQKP

[4] = target: AZGP1-6×His wild type (pEX-3-AZGP1-6×His) (UniProt P25311)

alpha-2-glycoprotein 1, zinc-binding (AZGP1), endogenous (from UniProt P25311 21-298)
binding [1]: binds
binding [2]: binds

AZGP1-6×His wild type (pEX-3-AZGP1-6×His) (from UniProt P25311 21-298)
binding [3]: binds

B1: Migration and invasion inhibitory protein, FLAG-tagged (pCMV-MIIP-FLAG) (protein, UniProt Q5JXC2 1-388)
chain: MVEAEELAQLRLLNLELLRQLWVGQDAVRRSVARAASESSLESSSSYNSETPSTPETSSTSLSTSCPRGRSSVWGPPDACRGDLRDVARSGVASLPPAKCQHQESLGRPRPHSAPSLGTSSLRDPEPSGRLGDPGPQEAQTPRSILAQQSKLSKPRVTFSEESAVPKRSWRLRPYLGYDWIAGSLDTSSSITSQPEAFFSKLQEFRETNKEECICSHPEPQLPGLRESSGSGVEEDHECVYCYRVNRRLFPVPVDPGTPCRLCRTPRDQQGPGTLAQPAHVRVSIPLSILEPPHRYHIHRRKSFDASDTLALPRHCLLGWDIFPPKSEKSSAPRNLDLWSSVSAEAQHQKLSGTSSPFHPASPMQMLPPTPTWSVPQVPRPHVPRQKP
binding [4]: binds

B2: STT3A, catalytic subunit of the N-oligosaccharyl-transferase (OST) complex (enzyme, UniProt P46977 1-705)
chain: MTKFGFLRLSYEKQDTLLKLLILSMAAVLSFSTRLFAVLRFESVIHEFDPYFNYRTTRFLAEEGFYKFHNWFDDRAWYPLGRIIGGTIYPGLMITSAAIYHVLHFFHITIDIRNVCVFLAPLFSSFTTIVTYHLTKELKDAGAGLLAAAMIAVVPGYISRSVAGSYDNEGIAIFCMLLTYYMWIKAVKTGSICWAAKCALAYFYMVSSWGGYVFLINLIPLHVLVLMLTGRFSHRIYVAYCTVYCLGTILSMQISFVGFQPVLSSEHMAAFGVFGLCQIHAFVDYLRSKLNPQQFEVLFRSVISLVGFVLLTVGALLMLTGKISPWTGRFYSLLDPSYAKNNIPIIASVSEHQPTTWSSYYFDLQLLVFMFPVGLYYCFSNLSDARIFIIMYGVTSMYFSAVMVRLMLVLAPVMCILSGIGVSQVLSTYMKNLDISRPDKKSKKQQDSTYPIKNEVASGMILVMAFFLITYTFHSTWVTSEAYSSPSIVLSARGGDGSRIIFDDFREAYYWLRHNTPEDAKVMSWWDYGYQITAMANRTILVDNNTWNNTHISRVGQAMASTEEKAYEIMRELDVSYVLVIFGGLTGYSSDDINKFLWMVRIGGSTDTGKHIKENDYYTPTGEFRVDREGSPVLLNCLMYKMCYYRFGQVYTEAKRPPGFDRVRNAEIGNKDFELDVLEEAYTTEHWLVRIYKVKDLDNRGLSRT
binding [4]: binds

B3: STT3B, catalytic subunit of the N-oligosaccharyl-transferase (OST) complex (enzyme, UniProt Q8TCJ2 1-826)
chain: MAEPSAPESKHKSSLNSSPWSGLMALGNSRHGHHGPGAQCAHKAAGGAAPPKPAPAGLSGGLSQPAGWQSLLSFTILFLAWLAGFSSRLFAVIRFESIIHEFDPWFNYRSTHHLASHGFYEFLNWFDERAWYPLGRIVGGTVYPGLMITAGLIHWILNTLNITVHIRDVCVFLAPTFSGLTSISTFLLTRELWNQGAGLLAACFIAIVPGYISRSVAGSFDNEGIAIFALQFTYYLWVKSVKTGSVFWTMCCCLSYFYMVSAWGGYVFIINLIPLHVFVLLLMQRYSKRVYIAYSTFYIVGLILSMQIPFVGFQPIRTSEHMAAAGVFALLQAYAFLQYLRDRLTKQEFQTLFFLGVSLAAGAVFLSVIYLTYTGYIAPWSGRFYSLWDTGYAKIHIPIIASVSEHQPTTWVSFFFDLHILVCTFPAGLWFCIKNINDERVFVALYAISAVYFAGVMVRLMLTLTPVVCMLSAIAFSNVFEHYLGDDMKRENPPVEDSSDEDDKRNQGNLYDKAGKVRKHATEQEKTEEGLGPNIKSIVTMLMLMLLMMFAVHCTWVTSNAYSSPSVVLASYNHDGTRNILDDFREAYFWLRQNTDEHARVMSWWDYGYQIAGMANRTTLVDNNTWNNSHIALVGKAMSSNETAAYKIMRTLDVDYVLVIFGGVIGYSGDDINKFLWMVRIAEGEHPKDIRESDYFTPQGEFRVDKAGSPTLLNCLMYKMSYYRFGEMQLDFRTPPGFDRTRNAEIGNKDIKFKHLEEAFTSEHWLVRIYKVKAPDNRETLDHKPRVTNIFPKQKYLSKKTTKRKRGYIKNKLVFKKGKKISKKTV
binding [4]: no binding
